Measured values: PMC11551741 (Nucleic Acids Research, 2024)
Results are given in words; binding and its absence hold for the method and conditions named.

Molecular target: T1, SLF1^tBRCT (tandem BRCT domain of SLF1, residues 6-208) (human) (UniProt Q9BQI6)
T1 sequence: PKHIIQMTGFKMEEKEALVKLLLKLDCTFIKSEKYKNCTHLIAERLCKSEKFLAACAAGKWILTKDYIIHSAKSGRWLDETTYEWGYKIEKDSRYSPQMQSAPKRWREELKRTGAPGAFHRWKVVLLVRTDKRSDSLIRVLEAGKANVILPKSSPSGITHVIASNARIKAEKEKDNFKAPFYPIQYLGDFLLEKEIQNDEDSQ
Assay: SEC; SLF1^ARD and SLF1^tBRCT 2:1 molar ratio, 20 and 10 μM; on ice 60 mins; 20 mM Tris pH 8.0, 150 mM NaCl; fractions on Coomassie gels; both purified

## SLF1^ARD (ankyrin repeat domain of SLF1, residues 802-934), His-tag cleaved (from UniProt Q9BQI6 802-934) (domain or fragment)
  binding: no binding (tested: 20 and 10 μM)
